Assay [1] has as its target T1, STX7-HA (syntaxin 7), in HEK293T (human) (UniProt O15400).
T1 sequence: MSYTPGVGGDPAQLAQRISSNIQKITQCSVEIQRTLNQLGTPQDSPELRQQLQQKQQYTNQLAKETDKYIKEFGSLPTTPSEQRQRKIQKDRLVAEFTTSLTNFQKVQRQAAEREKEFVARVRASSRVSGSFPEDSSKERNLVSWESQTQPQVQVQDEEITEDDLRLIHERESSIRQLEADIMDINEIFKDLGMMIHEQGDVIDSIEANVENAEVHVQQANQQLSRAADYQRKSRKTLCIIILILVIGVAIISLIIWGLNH
Put plainly: co-IP; HEK293T stably expressing Empty Vector, IFITM3 WT-FLAG or IFITM3 G95L-FLAG, co-transfected with STX7-HA and VAMP8-Myc or VAMP7-Myc; STX7-HA immunoprecipitated with anti-HA; blot anti-HA, anti-FLAG, anti-Myc.

Amino acid sequences for entries named in this document (tags omitted). A change or cut given only in a name is not applied to a line headed by its entry.
UniProt P51809: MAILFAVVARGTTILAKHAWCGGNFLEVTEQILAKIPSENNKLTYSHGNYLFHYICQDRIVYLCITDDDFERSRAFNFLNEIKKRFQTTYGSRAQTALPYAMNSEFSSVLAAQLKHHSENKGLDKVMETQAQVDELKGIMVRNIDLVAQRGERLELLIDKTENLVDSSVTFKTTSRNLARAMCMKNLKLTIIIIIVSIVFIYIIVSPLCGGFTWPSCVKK
UniProt Q12846: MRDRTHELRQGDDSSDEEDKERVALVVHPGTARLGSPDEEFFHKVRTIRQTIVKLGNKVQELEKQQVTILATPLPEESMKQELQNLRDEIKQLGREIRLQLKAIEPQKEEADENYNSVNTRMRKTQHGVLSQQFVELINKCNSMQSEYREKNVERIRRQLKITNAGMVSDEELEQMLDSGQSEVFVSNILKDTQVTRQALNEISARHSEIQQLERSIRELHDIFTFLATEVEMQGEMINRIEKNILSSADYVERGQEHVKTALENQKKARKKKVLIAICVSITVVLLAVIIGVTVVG
UniProt Q01628: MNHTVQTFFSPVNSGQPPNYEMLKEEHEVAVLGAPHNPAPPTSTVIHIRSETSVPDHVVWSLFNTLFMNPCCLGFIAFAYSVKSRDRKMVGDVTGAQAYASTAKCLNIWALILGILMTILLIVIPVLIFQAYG

For assay [2], the target named is T1, STX7-HA (syntaxin 7), in HEK293T (human). The assay can be described thus: co-IP; HEK293T co-transfected with two tagged proteins; the HA- or Myc-tagged SNARE immunoprecipitated (anti-HA or anti-Myc on Dynabeads, 3 h, 4 °C) from whole cell lysate (50 mM Tris-HCl pH 7.4, 1.0% Triton X-100, 150 mM NaCl, 1 mM EDTA); blot anti-FLAG.
Assay [3] deals with T2, STX8-HA (syntaxin 8) (human) (UniProt Q9UNK0).
T2 sequence: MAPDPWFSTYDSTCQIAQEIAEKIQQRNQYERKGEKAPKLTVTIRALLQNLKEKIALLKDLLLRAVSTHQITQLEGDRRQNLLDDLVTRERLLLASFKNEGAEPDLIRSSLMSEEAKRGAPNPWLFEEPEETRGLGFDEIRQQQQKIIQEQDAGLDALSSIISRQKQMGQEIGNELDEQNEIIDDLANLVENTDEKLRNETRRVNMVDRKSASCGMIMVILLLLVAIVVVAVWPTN
The assay is described as above.

For another assay, the target named is VAMP7-myc (human) (UniProt P51809). The assay is described as above.
A further assay has as its target T3, VAMP8-HA (human) (UniProt Q9BV40).
T3 sequence: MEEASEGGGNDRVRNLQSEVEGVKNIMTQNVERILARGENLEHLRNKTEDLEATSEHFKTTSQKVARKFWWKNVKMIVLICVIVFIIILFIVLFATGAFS
The assay is described as above.

Assay [4] concerns the target T4, STX7-HA (syntaxin 7), in HeLa (human) (UniProt O15400).
T4 sequence: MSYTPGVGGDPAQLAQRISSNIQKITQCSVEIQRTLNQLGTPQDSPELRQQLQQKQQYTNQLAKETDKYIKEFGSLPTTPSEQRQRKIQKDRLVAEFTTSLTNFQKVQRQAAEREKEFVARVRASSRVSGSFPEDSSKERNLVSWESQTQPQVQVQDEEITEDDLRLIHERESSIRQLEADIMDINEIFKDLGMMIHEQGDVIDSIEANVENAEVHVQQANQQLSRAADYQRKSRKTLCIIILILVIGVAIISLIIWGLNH
Put plainly: co-IP; HeLa (WT or IFITM3 KO) transfected with STX7-HA; STX7-HA immunoprecipitated with anti-HA; blot anti-HA, anti-IFITM3, anti-STX8, anti-Vti1b; isotype matched antibody as control.

Assay [5] has as its target T5, endogenous STX8 (HeLa) (human (endogenous in HeLa)) (UniProt Q9UNK0).
T5 sequence: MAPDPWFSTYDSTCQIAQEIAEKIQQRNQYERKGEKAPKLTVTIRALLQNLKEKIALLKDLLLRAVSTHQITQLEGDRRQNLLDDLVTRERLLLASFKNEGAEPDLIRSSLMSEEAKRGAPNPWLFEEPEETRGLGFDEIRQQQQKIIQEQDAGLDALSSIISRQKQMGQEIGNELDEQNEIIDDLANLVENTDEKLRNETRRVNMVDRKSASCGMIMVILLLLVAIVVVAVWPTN
Put plainly: co-IP; HeLa (WT or IFITM3 KO); endogenous STX8, Vti1b, VAMP8 or VAMP7 immunoprecipitated with its antibody from whole cell lysate; blot anti-IFITM3 (and anti-VAMP8 for the STX8 precipitate).

Assay [6] concerns the target endogenous VAMP7 (HeLa) (human (endogenous in HeLa)) (UniProt P51809). The assay is described as above.
In assay [7] the target is T6, endogenous VAMP8 (HeLa) (human (endogenous in HeLa)) (UniProt Q9BV40).
T6 sequence: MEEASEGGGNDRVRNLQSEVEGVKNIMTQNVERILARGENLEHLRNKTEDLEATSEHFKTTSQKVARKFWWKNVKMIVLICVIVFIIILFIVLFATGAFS
The description is as above.

The target in assay [8] is T7, endogenous Vti1b (HeLa) (human (endogenous in HeLa)) (UniProt Q9UEU0).
T7 sequence: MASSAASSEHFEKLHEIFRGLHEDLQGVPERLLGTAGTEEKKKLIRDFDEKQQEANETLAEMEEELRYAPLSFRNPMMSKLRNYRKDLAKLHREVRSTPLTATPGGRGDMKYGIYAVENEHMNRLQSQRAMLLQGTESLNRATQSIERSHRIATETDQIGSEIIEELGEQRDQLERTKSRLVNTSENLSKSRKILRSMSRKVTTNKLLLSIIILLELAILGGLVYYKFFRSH
Described as above.

For another assay, the target named is STX4-HA (syntaxin 4) (UniProt Q12846). The assay can be described thus: co-IP; HEK293T co-transfected with two tagged proteins; the HA- or Myc-tagged SNARE immunoprecipitated (anti-HA or anti-Myc on Dynabeads, 3 h, 4 °C) from whole cell lysate (50 mM Tris-HCl pH 7.4, 1.0% Triton X-100, 150 mM NaCl, 1 mM EDTA); blot anti-FLAG.
The target in assay [9] is IFITM3-FLAG WT (interferon-induced transmembrane protein 3) (human) (UniProt Q01628). Put plainly: co-IP; HEK293T co-transfected with two tagged proteins; the FLAG-tagged CD225 protein (IFITM3 or TUSC5) immunoprecipitated with anti-FLAG from whole cell lysate (50 mM Tris-HCl pH 7.4, 1.0% Triton X-100, 150 mM NaCl, 1 mM EDTA); blot anti-HA or anti-myc.
Assay [10] addresses T8, STX7-HA (syntaxin 7), in HEK293T (human), O15400.
T8 chain: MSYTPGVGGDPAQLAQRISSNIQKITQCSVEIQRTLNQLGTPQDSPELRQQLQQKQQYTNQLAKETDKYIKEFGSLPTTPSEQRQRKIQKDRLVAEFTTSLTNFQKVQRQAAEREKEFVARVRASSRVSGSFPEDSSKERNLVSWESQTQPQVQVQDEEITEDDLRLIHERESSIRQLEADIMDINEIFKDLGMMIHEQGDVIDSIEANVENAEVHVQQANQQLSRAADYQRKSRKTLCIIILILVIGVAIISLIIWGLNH
Put plainly: co-IP; HEK293T stably expressing Empty Vector, IFITM3 WT-FLAG or IFITM3 G95L-FLAG, co-transfected with STX7-HA and VAMP8-Myc or VAMP7-Myc; STX7-HA immunoprecipitated with anti-HA; blot anti-HA, anti-FLAG, anti-Myc. The settings on record: remark: other sources report otherwise.

Assay [11] concerns the target T9, endogenous STX8 (HeLa) (human (endogenous in HeLa)), Q9UNK0.
T9 chain: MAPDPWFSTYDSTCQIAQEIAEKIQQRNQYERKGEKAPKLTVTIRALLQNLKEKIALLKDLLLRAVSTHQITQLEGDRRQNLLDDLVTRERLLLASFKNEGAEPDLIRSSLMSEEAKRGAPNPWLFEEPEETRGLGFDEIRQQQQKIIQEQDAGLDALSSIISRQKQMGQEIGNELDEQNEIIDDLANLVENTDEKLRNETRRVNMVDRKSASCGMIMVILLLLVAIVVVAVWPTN
Put plainly: co-IP; HeLa (WT or IFITM3 KO); endogenous STX8, Vti1b, VAMP8 or VAMP7 immunoprecipitated with its antibody from whole cell lysate; blot anti-IFITM3 (and anti-VAMP8 for the STX8 precipitate). The settings on record: remark: other sources report otherwise.

These are yes or no findings as the source states them, for the method shown. Binding seen in cells or lysates may run through a third protein. Some entries that bind do so weakly or less than the wild type. For part of these data: Where a sequence is shown, tags or fusion partners need not be part of it.

In the case of “IFITM3-FLAG WT (interferon-induced transmembrane protein 3) (from UniProt Q01628 1-133)”, the binding entry (in assay [1]; in assay [2]; in assay [3]; in the assay with VAMP7-myc (human); with VAMP8-HA (human)) was “binds” each time.

For “IFITM3-FLAG G95L (from UniProt Q01628 1-133)”, the binding entry in [1] is listed as “no binding”; with VAMP7-myc (human), “binds”; with VAMP8-HA (human), “binds”.

For “endogenous IFITM3 (HeLa) (from UniProt Q01628 1-133)”, the binding result in assay [4], in [5], in [6], in assay [7] and in assay [8] was “binds” each time.

B1: endogenous STX8 (HeLa) (protein, UniProt Q9UNK0 1-236)
chain: MAPDPWFSTYDSTCQIAQEIAEKIQQRNQYERKGEKAPKLTVTIRALLQNLKEKIALLKDLLLRAVSTHQITQLEGDRRQNLLDDLVTRERLLLASFKNEGAEPDLIRSSLMSEEAKRGAPNPWLFEEPEETRGLGFDEIRQQQQKIIQEQDAGLDALSSIISRQKQMGQEIGNELDEQNEIIDDLANLVENTDEKLRNETRRVNMVDRKSASCGMIMVILLLLVAIVVVAVWPTN
For B1, the binding result in assay [4] was “binds”.

B2: TUSC5-FLAG WT (trafficking regulator of GLUT4, TRARG1/TUSC5) (protein, UniProt Q8IXB3 1-177)
chain: MAHPVQSEFPSAQEPGSAAFLDLPEMEILLTKAENKDDKTLNLSKTLSGPLDLEQNSQGLPFKAISEGHLEAPLPRSPSRASSRRASSIATTSYAQDQEAPRDYLILAVVACFCPVWPLNLIPLIISIMSRSSMQQGNVDGARRLGRLARLLSITLIIMGIVIIMVAVTVNFTVQKK
For the molecule B2, the binding entry with STX4-HA (syntaxin 4) is “binds”.

B3: STX7-HA (syntaxin 7), in HEK293T (protein, UniProt O15400 1-261)
chain: MSYTPGVGGDPAQLAQRISSNIQKITQCSVEIQRTLNQLGTPQDSPELRQQLQQKQQYTNQLAKETDKYIKEFGSLPTTPSEQRQRKIQKDRLVAEFTTSLTNFQKVQRQAAEREKEFVARVRASSRVSGSFPEDSSKERNLVSWESQTQPQVQVQDEEITEDDLRLIHERESSIRQLEADIMDINEIFKDLGMMIHEQGDVIDSIEANVENAEVHVQQANQQLSRAADYQRKSRKTLCIIILILVIGVAIISLIIWGLNH
In the case of B3, the binding entry in [9] was “binds”.

B4: VAMP8-Myc, Q9BV40 1-100 (protein)
chain: MEEASEGGGNDRVRNLQSEVEGVKNIMTQNVERILARGENLEHLRNKTEDLEATSEHFKTTSQKVARKFWWKNVKMIVLICVIVFIIILFIVLFATGAFS
As to B4, the binding entry in assay [10] is recorded as “binds”.

B5: endogenous VAMP8 (HeLa), Q9BV40 1-100 (protein)
chain: MEEASEGGGNDRVRNLQSEVEGVKNIMTQNVERILARGENLEHLRNKTEDLEATSEHFKTTSQKVARKFWWKNVKMIVLICVIVFIIILFIVLFATGAFS
With B5, the binding entry in [11] is “binds”.
